Results are given in words; binding and its absence hold for the method and conditions named.
Biological target: GST-BRD4-C-term (E653-F1362) (human) (UniProt O60885)
Assay: pull-down; 1 μg GST protein on magnetic glutathione beads with 1-3 μg of His-RUNX2; both purified

By UniProt entry, the sequences of proteins in these tests, tags left out.
UniProt Q13950: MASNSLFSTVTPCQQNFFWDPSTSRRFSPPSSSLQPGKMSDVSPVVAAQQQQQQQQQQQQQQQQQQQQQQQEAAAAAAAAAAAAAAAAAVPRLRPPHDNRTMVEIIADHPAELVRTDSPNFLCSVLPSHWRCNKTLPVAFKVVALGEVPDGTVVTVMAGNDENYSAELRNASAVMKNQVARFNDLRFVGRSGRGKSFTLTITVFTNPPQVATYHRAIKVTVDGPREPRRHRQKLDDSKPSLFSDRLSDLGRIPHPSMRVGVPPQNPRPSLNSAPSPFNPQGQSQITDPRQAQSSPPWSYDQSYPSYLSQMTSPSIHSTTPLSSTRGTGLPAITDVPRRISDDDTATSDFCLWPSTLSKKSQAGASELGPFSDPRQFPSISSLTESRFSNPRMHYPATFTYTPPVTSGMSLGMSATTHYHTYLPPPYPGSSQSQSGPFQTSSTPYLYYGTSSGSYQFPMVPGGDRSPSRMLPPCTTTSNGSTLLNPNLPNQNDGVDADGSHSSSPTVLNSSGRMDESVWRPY

binding: no binding (tested: 1-3 μg of His-RUNX2)
Substance: His-RUNX2 (Origene, TP760214) (from UniProt Q13950 1-521)

Source: PMC10905746
